According to the supplement of paper PMC4604168 (melanoma cell lines):
The other results are listed elsewhere or left out. Single values are uncertain, as repeats are few or missing.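 Cells were imaged in 1,536-well plates, and nuclei stained with an antibody against cleaved PARP were counted against all DNA-stained nuclei to give the apoptosis fraction. Screening doses were chosen to leave most cells alive, and resting and induced cleaved-PARP levels differ strongly between cell lines.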

system: G361; experiment: cleaved PARP positive nuclei fraction relative to DMSO control; melanoma cells; higher = more apoptosis; settings: library dose: low library concentration; 72 h

SMILES | cleaved PARP positive nuclei fraction
O=C(CCCCCCC(=O)Nc1ccccc1)NO [vorinostat] + COc1ccc2c(c1)CCC1C2CCC2(C)C(NCCCCCCN3C(=O)C=CC3=O)CCC12 [U73122] (first compound 0.08 µM, partner dose 0.4 µM) | 150%
Cn1nnc2c(C(N)=O)ncn2c1=O [temozolomide] + COc1ccc(COc2ccc(Cc3cnc(N)nc3N)cc2OC)cc1 [GW2580] (first compound 2 µM, partner dose 1 µM) | 226%
OCCn1cc(-c2cnc3nnn(Cc4ccc5ncccc5c4)c3n2)cn1 + COc1ccc(-c2ccc3c(N4CCOCC4)nc(N4C[C@@H](C)O[C@@H](C)C4)nc3n2)cc1CO [KU0063794] (first compound 1 µM, partner dose 0.02 µM) | 139%
Cc1ccc(NC(=O)c2cccc(N(C)C)c2)cc1NC(=O)c1ccc(O)cc1 + Cn1cc(/C=C2\C(=O)Nc3cccnc32)c2ccccc21 [GW441756] (first compound 2 µM, partner dose 0.4 µM) | 167%
Cc1ccc(NC(=O)c2cccc(N(C)C)c2)cc1NC(=O)c1ccc(O)cc1 + CCCCCCCCCCCC1=C(O)C(=O)C=C(O)C1=O [Embelin] (first compound 2 µM, partner dose 1.2 µM) | 77.3%
Cn1cncc1[C@@](N)(c1ccc(Cl)cc1)c1ccc2c(c1)c(-c1cccc(Cl)c1)cc(=O)n2C [tipifarnib] + Cc1cc([N+](=O)[O-])ccc1NS(=O)(=O)c1cc(Cl)ccc1Cl [FH535] (first compound 0.01 µM, partner dose 1 µM) | 121%
Cn1c(Nc2ccc(C(F)(F)F)cc2)nc2cc(Oc3ccnc(-c4ncc(C(F)(F)F)[nH]4)c3)ccc21 + COc1ccc2c(c1)CCC1C2CCC2(C)C(NCCCCCCN3C(=O)C=CC3=O)CCC12 [U73122] (first compound 0.08 µM, partner dose 0.4 µM) | 250%
Cn1cncc1[C@@](N)(c1ccc(Cl)cc1)c1ccc2c(c1)c(-c1cccc(Cl)c1)cc(=O)n2C [tipifarnib] + Oc1cc(-c2nc(-c3ccccc3)[nH]c2-c2ccncc2)ccc1Cl [L779450] (first compound 0.01 µM, partner dose 0.2 µM) | 129%
OCCn1cc(-c2cnc3nnn(Cc4ccc5ncccc5c4)c3n2)cn1 + O=C(O)C(=O)Nc1sc2c(c1C(=O)O)CCNC2 [TCS401] (first compound 1 µM, partner dose 1.66667 µM) | 76.1%
C=CCn1c(=O)c2cnc(Nc3ccc(N4CCN(C)CC4)cc3)nc2n1-c1cccc(C(C)(C)O)n1 + Oc1nc(-c2ccc(C(F)(F)F)cc2)nc2c1CSCC2 [XAV939] (first compound 0.02 µM, partner dose 2 µM) | 54.1%
Nc1cccc2c1CN(C1CCC(=O)NC1=O)C2=O (stereo unspecified) [lenalidomide] + CCCCCCCCCCCC1=C(O)C(=O)C=C(O)C1=O [Embelin] (first compound 1 µM, partner dose 1.2 µM) | 87%
C[C@@H]1CCN(C(=O)CC#N)C[C@@H]1N(C)c1ncnc2[nH]ccc12 + Oc1cc(-c2nc(-c3ccccc3)[nH]c2-c2ccncc2)ccc1Cl [L779450] (first compound 1 µM, partner dose 0.2 µM) | 103%
Cc1cc(N2CCOCC2)cc2[nH]c(-c3c(NC[C@@H](O)c4cccc(Cl)c4)cc[nH]c3=O)nc12 + Cc1cc([N+](=O)[O-])ccc1NS(=O)(=O)c1cc(Cl)ccc1Cl [FH535] (first compound 0.2 µM, partner dose 1 µM) | 195%
C=CCn1c(=O)c2cnc(Nc3ccc(N4CCN(C)CC4)cc3)nc2n1-c1cccc(C(C)(C)O)n1 + O=C1NC(=O)/C(=C/c2ccc(-c3ccc(F)cc3O)o2)S1 [AS252424] (first compound 0.02 µM, partner dose 1 µM) | 104%
Cc1ccc(NC(=O)c2cccc(N(C)C)c2)cc1NC(=O)c1ccc(O)cc1 + N#Cc1c(O)c2c(-c3ccc(-c4ccccc4O)cc3)csc2[nH]c1=O [A769662] (first compound 2 µM, partner dose 2 µM) | 64.7%
Cn1cncc1[C@@](N)(c1ccc(Cl)cc1)c1ccc2c(c1)c(-c1cccc(Cl)c1)cc(=O)n2C [tipifarnib] + CCN(CC)CCCCNc1ncc2cc(-c3cc(OC)cc(OC)c3)c(NC(=O)NC(C)(C)C)nc2n1 [PD173074] (first compound 0.01 µM, partner dose 0.1 µM) | 115%

Reformatted as tab-separated lines: entries from further up
SMILES	cleaved PARP positive nuclei fraction
Cn1cncc1[C@@](N)(c1ccc(Cl)cc1)c1ccc2c(c1)c(-c1cccc(Cl)c1)cc(=O)n2C [tipifarnib] + Cc1cc([N+](=O)[O-])ccc1NS(=O)(=O)c1cc(Cl)ccc1Cl [FH535] (first compound 0.01 µM, partner dose 1 µM)	121%
Cn1c(Nc2ccc(C(F)(F)F)cc2)nc2cc(Oc3ccnc(-c4ncc(C(F)(F)F)[nH]4)c3)ccc21 + COc1ccc2c(c1)CCC1C2CCC2(C)C(NCCCCCCN3C(=O)C=CC3=O)CCC12 [U73122] (first compound 0.08 µM, partner dose 0.4 µM)	250%
